Measurements from publication PMC3579733.

What was measured:
Experiment in all cases: affinity purification with mass spectrometry; one-step and two-step bait fishing taken together (final data set; both methods applied to all baits); the place does not tell which of the two gave the result
[1] = target: CheD (Halobacterium salinarum R1 (DSM 671))
[2] = target: T1, CheW2 (Halobacterium salinarum R1 (DSM 671)) (UniProt Q9HQY8)
T1 sequence: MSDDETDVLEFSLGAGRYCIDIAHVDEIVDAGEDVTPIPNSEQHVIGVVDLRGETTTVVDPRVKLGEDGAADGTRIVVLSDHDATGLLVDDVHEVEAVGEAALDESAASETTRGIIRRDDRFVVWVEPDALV

[3] = target: CheC3 (Halobacterium salinarum R1 (DSM 671))
[4] = target: T2, CheC2 (Halobacterium salinarum R1 (DSM 671)) (UniProt Q9HPJ6)
T2 sequence: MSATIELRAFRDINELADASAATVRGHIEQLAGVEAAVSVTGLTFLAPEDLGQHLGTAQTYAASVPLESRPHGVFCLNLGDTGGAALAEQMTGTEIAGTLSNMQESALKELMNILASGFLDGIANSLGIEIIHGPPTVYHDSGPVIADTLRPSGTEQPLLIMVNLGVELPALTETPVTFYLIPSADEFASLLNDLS

[5] = target: T3, CheC1 (Halobacterium salinarum R1 (DSM 671)) (UniProt B0R4J8)
T3 sequence: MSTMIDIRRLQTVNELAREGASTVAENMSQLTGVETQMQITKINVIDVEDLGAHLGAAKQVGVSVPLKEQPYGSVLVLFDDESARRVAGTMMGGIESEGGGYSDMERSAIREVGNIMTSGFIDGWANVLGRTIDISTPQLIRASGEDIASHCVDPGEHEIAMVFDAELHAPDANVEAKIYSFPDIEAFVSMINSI

[6] = target: T4, CheA (Halobacterium salinarum R1 (DSM 671)) (UniProt B0R4J9)
T4 sequence: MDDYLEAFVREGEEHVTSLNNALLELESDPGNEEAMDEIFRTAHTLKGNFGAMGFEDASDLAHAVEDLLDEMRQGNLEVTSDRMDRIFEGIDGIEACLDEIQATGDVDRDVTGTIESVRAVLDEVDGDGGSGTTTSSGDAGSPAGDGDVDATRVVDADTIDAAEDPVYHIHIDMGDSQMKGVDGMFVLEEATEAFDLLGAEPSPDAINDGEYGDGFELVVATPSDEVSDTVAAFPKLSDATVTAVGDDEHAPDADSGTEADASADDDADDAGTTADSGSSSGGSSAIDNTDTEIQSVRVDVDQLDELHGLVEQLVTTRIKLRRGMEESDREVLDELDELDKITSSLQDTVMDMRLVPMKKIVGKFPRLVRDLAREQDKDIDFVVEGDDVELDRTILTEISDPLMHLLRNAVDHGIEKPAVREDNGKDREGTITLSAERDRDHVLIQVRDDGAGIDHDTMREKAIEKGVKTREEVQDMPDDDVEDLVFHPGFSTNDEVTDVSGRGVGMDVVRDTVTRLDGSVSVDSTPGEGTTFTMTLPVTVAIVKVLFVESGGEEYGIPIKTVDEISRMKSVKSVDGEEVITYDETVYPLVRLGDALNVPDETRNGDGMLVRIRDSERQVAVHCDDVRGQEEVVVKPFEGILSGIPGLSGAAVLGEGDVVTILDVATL

[7] = target: T5, CheW1 (Halobacterium salinarum R1 (DSM 671)) (UniProt Q9HQW5)
T5 sequence: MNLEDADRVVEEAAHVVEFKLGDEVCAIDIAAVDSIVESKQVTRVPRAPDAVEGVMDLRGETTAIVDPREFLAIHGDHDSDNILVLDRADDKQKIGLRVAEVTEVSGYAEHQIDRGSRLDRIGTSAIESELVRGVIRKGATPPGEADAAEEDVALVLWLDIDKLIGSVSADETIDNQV

[8] = target: T6, CheB (Halobacterium salinarum R1 (DSM 671)) (UniProt B0R4K0)
T6 sequence: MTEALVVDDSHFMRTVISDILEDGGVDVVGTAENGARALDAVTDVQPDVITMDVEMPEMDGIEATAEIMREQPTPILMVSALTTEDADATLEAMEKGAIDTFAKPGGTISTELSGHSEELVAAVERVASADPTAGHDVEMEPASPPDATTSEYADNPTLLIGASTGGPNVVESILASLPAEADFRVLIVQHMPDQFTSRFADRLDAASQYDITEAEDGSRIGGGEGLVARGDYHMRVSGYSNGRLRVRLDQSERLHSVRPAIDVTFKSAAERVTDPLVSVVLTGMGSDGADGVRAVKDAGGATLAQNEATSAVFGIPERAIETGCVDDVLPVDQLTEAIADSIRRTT

[9] = target: T7, CheY (Halobacterium salinarum R1 (DSM 671)) (UniProt B0R4K1)
T7 sequence: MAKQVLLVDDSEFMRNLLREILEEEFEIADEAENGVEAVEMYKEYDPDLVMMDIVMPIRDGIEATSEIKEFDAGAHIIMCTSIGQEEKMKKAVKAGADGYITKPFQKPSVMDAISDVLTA

[10] = target: OE4643R (Halobacterium salinarum R1 (DSM 671))

Measured: binding

B1: Htr7 (receptor, UniProt B0R6A6 1-545)
chain: MSGAAVFVDAVVAPLGDAVGAIGFGAAAALGYRNYRDTDAEAAFWMAFTFASLLGVTWTVSLMLEKAGVATQIFNLATGPLMATTVAVFAIGGTATLAIVEDMEALVEERAQRRQEAEEERAEAERAREKAEQKQAEAERQTAEAESAKQDARERSAEIEQLAADLESQATEVGATLEAASDGDLTARVDATTDNAEIAEVATVVNDMLTTMERTIDEIQGFSTNVTTASREATAGAKEIQDASQTVSESVQEIAAGTDDQREQLESVAEEMDSYSATVEEVAATAQSVADTAADTTDVATAGKQTAEDAIDAIDAVQETMQTTVANVDALEDLTTEIDDIAELISDIAEQTNMLALNANIEAARAGSGGGSNGDGFAVVADEVKELATESQRSAKDIAELIEEVQSQTATTVEEIRVAEQRVNDGAAAVEETVDAFGAVTENIQETTDGVQEISQAMDEQAQRSERVVSSVDDIATISQATADRAENVSAASEEQTASITEVTSSLQSLAAQADTLEDRLNEFRTEATGTAHGEATDAPAGQSD
no binding: all assays above

These are yes or no findings as the source states them, for the method shown. In cells and extracts the contact can be indirect. A yes stands for co-enrichment or nearness to the bait. Other partners may have been found. A no says only that the protein was not detected with the bait.
